# Patent US9517222B2, “Method for the treatment of senile dementia of the Alzheimer's type” (Phenomenome Discoveries Inc., priority 2007, dated 2016)
# A unit is not stated for every read-out.
# How the values were obtained:
# [1] = Serum ethanolamine phospholipid levels in human cohorts (dementia severity, post-mortem pathology, age) by flow-injection MS/MS
# [2] = Serum ethanolamine phospholipid ratios to PtdEt 16:0/18:0 (M01) in human cohorts
# [3] = serum, females, post mortem SDAT
# [4] = serum, females, post mortem control
compound,measurement,setting,value
"CC/C=C\C/C=C\C/C=C\C/C=C\C/C=C\C/C=C\CCC(=O)O [Metabolite M25, Free 22:6]",Ratio of serum levels,"[1]; AD, All to CN, Male",0.909
same,Ratio of serum levels,"[1]; ADAS 5-19 to CN, Male",1.035
same,Ratio of serum levels,"[1]; ADAS 20-39 to 5-19, Male",0.836
same,Ratio of serum levels,"[1]; ADAS 20-39 to CN, Male",0.865
same,Ratio of serum levels,"[1]; ADAS 40-70 to 5-19, Male",0.735
same,Ratio of serum levels,"[1]; ADAS 40-70 to 20-39, Male",0.879
same,Ratio of serum levels,"[1]; ADAS 40-70 to CN, Male",0.760
same,"Serum level, Mean","[1]; Cognitive Normal, Female",0.241
same,"Average serum level, Mean","[1]; Cognitive Normal, Male",0.240
same,"Serum level, Mean","[1]; Post Mortem Ctl, Male",0.238
same,"Serum level, Mean",[1]; Post Mortem SDAT Male,0.180
same,Ratio of serum levels,"[1]; Post mortem SDAT vs Control, Male",0.757
same,"Serum level, Mean","[1]; SDAT, ADAS 5-19, Female",0.218
same,"Average serum level, Mean","[1]; SDAT, ADAS 5-19, Male",0.249
same,"Serum level, Mean","[1]; SDAT, ADAS 20-39, Female",0.212
same,"Average serum level, Mean","[1]; SDAT, ADAS 20-39, Male",0.208
same,"Serum level, Mean","[1]; SDAT, ADAS 40-70, Female",0.204
same,"Average serum level, Mean","[1]; SDAT, ADAS 40-70, Male",0.183
same,"Serum level, Mean","[1]; SDAT_all, Female",0.211
same,"Average serum level, Mean","[1]; SDAT_all, Male",0.218
same,"Ratio, ADAS 5-19 to CN, Female","[1]; serum level ratio, females, ADAS 5-19 vs CN",0.907
same,"Ratio, ADAS 20-39 to 5-19, Female","[1]; serum level ratio, females, ADAS 20-39 vs ADAS 5-19",0.971
same,"Ratio, ADAS 20-39 to CN, Female","[1]; serum level ratio, females, ADAS 20-39 vs CN",0.880
same,"Ratio, ADAS 40-70 to 5-19, Female","[1]; serum level ratio, females, ADAS 40-70 vs ADAS 5-19",0.934
same,"Ratio, ADAS 40-70 to 20-39, Female","[1]; serum level ratio, females, ADAS 40-70 vs ADAS 20-39",0.962
same,"Ratio, ADAS 40-70 to CN, Female","[1]; serum level ratio, females, ADAS 40-70 vs CN",0.847
same,"Ratio, 50-59 vs. 40-49, Female","[1]; serum level ratio, females, age 50-59 vs 40-49",1.176
same,"Ratio, 60-69 vs. 40-49, Female","[1]; serum level ratio, females, age 60-69 vs 40-49",1.381
same,"Ratio, 70+ vs. 40-49, Female","[1]; serum level ratio, females, age 70+ vs 40-49",1.581
same,"Ratio, AD, All to CN, Female","[1]; serum level ratio, females, all AD vs cognitively normal",0.876
same,"Ratio, Autopsy AD vs. Control, Female","[1]; serum level ratio, females, autopsy AD vs control",1.051
same,"Ratio, 50-59 vs. 40-49, Male","[1]; serum level ratio, males, age 50-59 vs 40-49",1.405
same,"Ratio, 60-69 vs. 40-49, Male","[1]; serum level ratio, males, age 60-69 vs 40-49",1.589
same,"Ratio, 70+ vs. 40-49, Male","[1]; serum level ratio, males, age 70+ vs 40-49",1.912
same,"Mean serum level, Age Ctl, 30-39, Female","[1]; serum, females, age 30-39",0.239
same,"Mean serum level, Age Ctl, 40-49, Female","[1]; serum, females, age 40-49",0.236
same,"Mean serum level, Age Ctl, 50-59, Female","[1]; serum, females, age 50-59",0.277
same,"Mean serum level, Age Ctl, 60-69, Female","[1]; serum, females, age 60-69",0.326
same,"Mean serum level, Age Ctl, 70+, Female","[1]; serum, females, age 70+",0.373
same,"Mean serum level, Post Mortem SDAT, Female",[1]; [3],0.198
same,"Mean serum level, Post Mortem Ctl, Female",[1]; [4],0.189
same,"Mean serum level, Age Ctl, 30-39, Male","[1]; serum, males, age 30-39",0.205
same,"Mean serum level, Age Ctl, 40-49, Male","[1]; serum, males, age 40-49",0.195
same,"Mean serum level, Age Ctl, 50-59, Male","[1]; serum, males, age 50-59",0.274
same,"Mean serum level, Age Ctl, 60-69, Male","[1]; serum, males, age 60-69",0.310
same,"Mean serum level, Age Ctl, 70+, Male","[1]; serum, males, age 70+",0.374
same,Ratio of ethanolamine phospholipid ratios to M01 between cohorts,"[2]; AD, All to CN, Male",0.965
same,Ratio of ethanolamine phospholipid ratios to M01 between cohorts,"[2]; ADAS 5-19 to CN, Male",1.025
same,Ratio of ethanolamine phospholipid ratios to M01 between cohorts,"[2]; ADAS 20-39 to CN, Male",0.973
same,Ratio of ethanolamine phospholipid ratios to M01 between cohorts,"[2]; ADAS 40-70 to CN, Male",0.838
same,"Average serum ethanolamine phospholipid ratio to M01, Mean","[2]; Cognitive Normal, Male, serum",2.160
same,"Average serum ethanolamine phospholipid ratio to M01, Mean","[2]; SDAT, ADAS 5-19, Male, serum",2.215
same,"Average serum ethanolamine phospholipid ratio to M01, Mean","[2]; SDAT, ADAS 20-39, Male, serum",2.102
same,"Average serum ethanolamine phospholipid ratio to M01, Mean","[2]; SDAT, ADAS 40-70, Male, serum",1.811
same,"Average serum ethanolamine phospholipid ratio to M01, Mean","[2]; SDAT_all, Male, serum",2.085
same,"Ethanolamine Phospholipid Ratio to M01, Mean, Age Ctl, 30-39, Female","[2]; human serum, females aged 30-39",2.505
same,"Ethanolamine Phospholipid Ratio to M01, Mean, Age Ctl, 40-49, Female","[2]; human serum, females aged 40-49",2.286
same,"Ethanolamine Phospholipid Ratio to M01, Mean, Age Ctl, 50-59, Female","[2]; human serum, females aged 50-59",3.219
same,"Ratio of Ethanolamine Phospholipid Ratio to M01, 50-59 vs. 40-49, Female","[2]; human serum, females aged 50-59 vs. females aged 40-49",1.408
same,"Ethanolamine Phospholipid Ratio to M01, Mean, Age Ctl, 60-69, Female","[2]; human serum, females aged 60-69",2.995
same,"Ratio of Ethanolamine Phospholipid Ratio to M01, 60-69 vs. 40-49, Female","[2]; human serum, females aged 60-69 vs. females aged 40-49",1.310
same,"Ethanolamine Phospholipid Ratio to M01, Mean, Age Ctl, 70+_Female","[2]; human serum, females aged 70+",3.280
same,"Ratio of Ethanolamine Phospholipid Ratio to M01, 70+ vs. 40-49, Female","[2]; human serum, females aged 70+ vs. females aged 40-49",1.435
same,"Ratio of Ethanolamine Phospholipid Ratio to M01, 50-59 vs. 40-49, Male","[2]; human serum, males aged 50-59 vs. males aged 40-49",1.391
same,"Ratio of Ethanolamine Phospholipid Ratio to M01, 60-69 vs. 40-49, Male","[2]; human serum, males aged 60-69 vs. males aged 40-49",1.321
same,"Ratio of Ethanolamine Phospholipid Ratio to M01, 70+ vs. 40-49, Male","[2]; human serum, males aged 70+ vs. males aged 40-49",1.553
same,"Ratio of ethanolamine phospholipid ratio to M01, ADAS 5-19 to CN, Female","[2]; serum, females, ADAS 5-19 vs cognitive normal",0.966
same,"Ratio of ethanolamine phospholipid ratio to M01, ADAS 20-39 to 5-19, Female","[2]; serum, females, ADAS 20-39 vs ADAS 5-19",1.018
same,"Ratio of ethanolamine phospholipid ratio to M01, ADAS 20-39 to CN, Female","[2]; serum, females, ADAS 20-39 vs cognitive normal",0.983
same,"Ratio of ethanolamine phospholipid ratio to M01, ADAS 40-70 to 5-19, Female","[2]; serum, females, ADAS 40-70 vs ADAS 5-19",0.922
same,"Ratio of ethanolamine phospholipid ratio to M01, ADAS 40-70 to 20-39, Female","[2]; serum, females, ADAS 40-70 vs ADAS 20-39",0.906
same,"Ratio of ethanolamine phospholipid ratio to M01, ADAS 40-70 to CN, Female","[2]; serum, females, ADAS 40-70 vs cognitive normal",0.890
same,"Ethanolamine phospholipid ratio to M01, Mean, SDAT, ADAS 5-19, Female","[2]; serum, females, SDAT ADAS 5-19",2.072
same,"Ethanolamine phospholipid ratio to M01, Mean, SDAT, ADAS 20-39, Female","[2]; serum, females, SDAT ADAS 20-39",2.109
same,"Ethanolamine phospholipid ratio to M01, Mean, SDAT, ADAS 40-70, Female","[2]; serum, females, SDAT ADAS 40-70",1.910
same,"Ratio of ethanolamine phospholipid ratio to M01, AD, All to CN, Female","[2]; serum, females, all AD vs cognitive normal",0.947
same,"Ethanolamine phospholipid ratio to M01, Mean, SDAT_all Female","[2]; serum, females, all SDAT",2.031
same,"Ratio of ethanolamine phospholipid ratio to M01, Autopsy AD vs. Control, Female","[2]; serum, females, autopsy AD vs post mortem control",1.279
same,"Ethanolamine phospholipid ratio to M01, Mean, Cognitive Normal, Female","[2]; serum, females, cognitive normal",2.145
same,"Ethanolamine phospholipid ratio to M01, Mean, Post Mortem SDAT Female",[2]; [3],1.767
same,"Ethanolamine phospholipid ratio to M01, Mean, Post Mortem Ctl, Female",[2]; [4],1.382
same,"Ratio of ethanolamine phospholipid ratio to M01, ADAS 20-39 to 5-19, Male","[2]; serum, males, SDAT ADAS 20-39 vs ADAS 5-19",0.949
same,"Ratio of ethanolamine phospholipid ratio to M01, ADAS 40-70 to 5-19, Male","[2]; serum, males, SDAT ADAS 40-70 vs ADAS 5-19",0.818
same,"Ratio of ethanolamine phospholipid ratio to M01, ADAS 40-70 to 20-39, Male","[2]; serum, males, SDAT ADAS 40-70 vs ADAS 20-39",0.862
same,"Ethanolamine phospholipid ratio to M01, Mean, Age Ctl, 30-39, Male","[2]; serum, males, age control 30-39",2.182
same,"Ethanolamine phospholipid ratio to M01, Mean, Age Ctl, 40-49, Male","[2]; serum, males, age control 40-49",1.975
same,"Ethanolamine phospholipid ratio to M01, Mean, Age Ctl, 50-59, Male","[2]; serum, males, age control 50-59",2.747
same,"Ethanolamine phospholipid ratio to M01, Mean, Age Ctl, 60-69, Male","[2]; serum, males, age control 60-69",2.608
same,"Ethanolamine phospholipid ratio to M01, Mean, Age Ctl, 70+_Male","[2]; serum, males, age control 70+",3.066
same,"Ethanolamine phospholipid ratio to M01, Mean, Post Mortem SDAT Male","[2]; serum, males, post mortem SDAT",2.384
same,"Ratio of ethanolamine phospholipid ratio to M01, SDAT vs Control (post mortem, males)","[2]; serum, males, post mortem SDAT vs post mortem control",1.154
same,"Ethanolamine phospholipid ratio to M01, Mean, Post Mortem Ctl, Male","[2]; serum, males, post mortem control",2.066
